# Measured values as given in the supplement of paper PMC10032668.
# Amino acid sequences for entries named in this document (tags omitted).
# ATP6V1F, Q16864, UniProt Q16864, whole entry: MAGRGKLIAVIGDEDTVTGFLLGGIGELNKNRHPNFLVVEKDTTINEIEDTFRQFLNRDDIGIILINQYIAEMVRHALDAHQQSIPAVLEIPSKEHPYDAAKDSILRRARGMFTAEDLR
# CD2AP, Q9Y5K6, UniProt Q9Y5K6, whole entry: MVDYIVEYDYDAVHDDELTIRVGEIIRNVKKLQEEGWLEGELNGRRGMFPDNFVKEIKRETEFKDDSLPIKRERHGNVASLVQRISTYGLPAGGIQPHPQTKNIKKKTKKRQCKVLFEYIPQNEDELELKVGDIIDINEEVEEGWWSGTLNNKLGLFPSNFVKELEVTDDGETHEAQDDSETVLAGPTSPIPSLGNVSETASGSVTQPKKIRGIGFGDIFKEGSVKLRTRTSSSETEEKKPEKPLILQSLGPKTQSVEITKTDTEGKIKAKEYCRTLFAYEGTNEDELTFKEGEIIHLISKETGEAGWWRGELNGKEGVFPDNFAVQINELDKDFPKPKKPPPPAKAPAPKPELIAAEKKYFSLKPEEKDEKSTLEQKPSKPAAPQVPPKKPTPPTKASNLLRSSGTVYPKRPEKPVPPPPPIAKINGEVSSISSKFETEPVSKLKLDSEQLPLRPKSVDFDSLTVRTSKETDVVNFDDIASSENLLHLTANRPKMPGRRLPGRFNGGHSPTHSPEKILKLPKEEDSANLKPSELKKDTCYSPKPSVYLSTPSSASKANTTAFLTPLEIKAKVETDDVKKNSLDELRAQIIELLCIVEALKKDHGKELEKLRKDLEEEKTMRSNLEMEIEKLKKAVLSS
# HIST1H1E, P10412, UniProt P10412, whole entry: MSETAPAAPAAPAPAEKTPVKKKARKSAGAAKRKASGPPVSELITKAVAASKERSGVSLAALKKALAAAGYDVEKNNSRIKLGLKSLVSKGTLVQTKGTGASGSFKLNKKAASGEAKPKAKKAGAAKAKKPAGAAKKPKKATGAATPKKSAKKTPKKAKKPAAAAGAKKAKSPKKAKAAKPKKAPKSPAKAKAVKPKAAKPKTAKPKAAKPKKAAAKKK
# PARK7, Q99497, UniProt Q99497, whole entry: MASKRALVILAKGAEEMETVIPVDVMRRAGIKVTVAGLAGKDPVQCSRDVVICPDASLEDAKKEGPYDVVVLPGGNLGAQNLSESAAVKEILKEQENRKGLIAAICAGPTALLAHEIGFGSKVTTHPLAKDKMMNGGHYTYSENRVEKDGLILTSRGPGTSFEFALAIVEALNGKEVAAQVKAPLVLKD
# CBX2, Q14781, UniProt Q14781, whole entry: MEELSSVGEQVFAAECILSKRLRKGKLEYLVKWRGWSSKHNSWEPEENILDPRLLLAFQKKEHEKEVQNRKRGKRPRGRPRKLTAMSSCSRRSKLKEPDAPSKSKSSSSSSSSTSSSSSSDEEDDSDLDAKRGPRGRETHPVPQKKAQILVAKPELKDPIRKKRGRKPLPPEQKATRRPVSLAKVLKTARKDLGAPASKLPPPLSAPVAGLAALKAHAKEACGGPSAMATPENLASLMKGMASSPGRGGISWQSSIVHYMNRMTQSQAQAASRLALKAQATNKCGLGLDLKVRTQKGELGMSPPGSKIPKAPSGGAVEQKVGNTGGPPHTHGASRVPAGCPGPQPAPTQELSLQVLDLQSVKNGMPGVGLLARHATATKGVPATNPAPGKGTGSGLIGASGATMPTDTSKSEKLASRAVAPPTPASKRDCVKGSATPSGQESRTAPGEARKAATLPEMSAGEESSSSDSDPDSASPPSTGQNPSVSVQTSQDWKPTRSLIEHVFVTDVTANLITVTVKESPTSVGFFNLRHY
# CLPP, Q16740, UniProt Q16740, whole entry: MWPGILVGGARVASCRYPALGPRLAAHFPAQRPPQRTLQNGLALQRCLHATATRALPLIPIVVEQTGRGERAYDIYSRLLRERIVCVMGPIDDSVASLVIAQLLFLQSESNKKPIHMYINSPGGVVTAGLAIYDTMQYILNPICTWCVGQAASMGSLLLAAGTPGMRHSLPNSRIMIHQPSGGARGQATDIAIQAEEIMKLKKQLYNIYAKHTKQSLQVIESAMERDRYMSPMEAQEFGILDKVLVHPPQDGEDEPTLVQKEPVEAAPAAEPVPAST
# PLK1, P53350, UniProt P53350, whole entry: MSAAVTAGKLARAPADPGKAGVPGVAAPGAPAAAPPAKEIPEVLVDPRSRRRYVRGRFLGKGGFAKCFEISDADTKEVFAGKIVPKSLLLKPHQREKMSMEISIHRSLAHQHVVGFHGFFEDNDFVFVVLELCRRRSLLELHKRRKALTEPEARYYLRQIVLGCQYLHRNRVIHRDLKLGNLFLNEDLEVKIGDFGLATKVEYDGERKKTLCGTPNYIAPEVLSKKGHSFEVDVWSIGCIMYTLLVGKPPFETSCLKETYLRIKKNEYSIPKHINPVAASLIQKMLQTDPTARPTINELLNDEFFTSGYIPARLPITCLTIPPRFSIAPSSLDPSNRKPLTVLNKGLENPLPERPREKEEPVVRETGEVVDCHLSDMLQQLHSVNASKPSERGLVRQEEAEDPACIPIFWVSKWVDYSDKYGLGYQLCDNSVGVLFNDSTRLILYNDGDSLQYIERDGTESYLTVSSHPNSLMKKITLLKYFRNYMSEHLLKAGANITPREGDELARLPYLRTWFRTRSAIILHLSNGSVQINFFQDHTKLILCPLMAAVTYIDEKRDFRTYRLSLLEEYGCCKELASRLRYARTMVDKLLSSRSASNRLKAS
# RAB7A, P51149, UniProt P51149, whole entry: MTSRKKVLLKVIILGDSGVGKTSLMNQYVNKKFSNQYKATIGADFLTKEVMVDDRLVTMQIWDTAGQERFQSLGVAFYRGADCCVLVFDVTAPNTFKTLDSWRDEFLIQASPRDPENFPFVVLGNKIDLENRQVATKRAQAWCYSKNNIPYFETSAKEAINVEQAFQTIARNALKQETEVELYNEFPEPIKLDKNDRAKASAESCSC
# Some of the results follow. Only hits are listed; about a third recur on repeated control peptides.
# What was measured:
# Assay in all cases: PRISMA enrichment of interactor (LFQ) in peptide spot vs all other peptide spots (log2 fold change); higher = stronger / more specific binding of the interactor to the peptide
# ACSL3, O95573 = target: ACSL3, O95573
# Procedure: (§1)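 PRISMA: 15-aa overlapping tiles (offset 8 aa) of 60 microproteins, plus SOS1/GLUT1 control peptides, were spot-synthesized on cellulose membranes in triplicate. Membranes were incubated with benzonase-treated HEK293T lysate, and bound proteins were identified by LC-MS/MS with LFQ. Enrichment is the log2 fold change of each protein in one spot versus all other spots. Only interactors passing the significance cutoff are listed.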
# ATP6V1F, Q16864 = target: ATP6V1F, Q16864
# Procedure: as §1
# EIF2B2, P49770 = target: EIF2B2, P49770
# Procedure: as §1
# KNOP1, Q1ED39 = target: KNOP1, Q1ED39
# Procedure: as §1
# STAG2, Q8N3U4 = target: STAG2, Q8N3U4
# Procedure: as §1
# UMPS, P11172 = target: UMPS, P11172
# Procedure: as §1
# USP15, Q9Y4E8 = target: USP15, Q9Y4E8
# Procedure: as §1
# ACP1, P24666 = target: ACP1, P24666
# Procedure: as §1
# CD2AP, Q9Y5K6 = target: CD2AP, Q9Y5K6
# Procedure: as §1
# CHERP, Q8IWX8 = target: CHERP, Q8IWX8
# Procedure: as §1
# CPSF2, Q9P2I0 = target: CPSF2, Q9P2I0
# Procedure: as §1
# FKBP4, Q02790 = target: FKBP4, Q02790
# Procedure: as §1
# GRB2, P62993 = target: GRB2, P62993
# Procedure: as §1
# HIST1H1E, P10412 = target: HIST1H1E, P10412
# Procedure: as §1
# MRPL2, Q5T653 = target: MRPL2, Q5T653
# Procedure: as §1
# PACSIN2, Q9UNF0 = target: PACSIN2, Q9UNF0
# Procedure: as §1
# PARK7, Q99497 = target: PARK7, Q99497
# Procedure: as §1
# PRIM1, P49642 = target: PRIM1, P49642
# Procedure: as §1
# RBM12B, Q8IXT5 = target: RBM12B, Q8IXT5
# Procedure: as §1
# RUSC1, Q9BVN2 = target: RUSC1, Q9BVN2
# Procedure: as §1
# SFSWAP, Q12872 = target: SFSWAP, Q12872
# Procedure: as §1
# SH3GL1, Q99961 = target: SH3GL1, Q99961
# Procedure: as §1
# STIP1, P31948 = target: STIP1, P31948
# Procedure: as §1
# CBX2, Q14781 = target: CBX2, Q14781
# Procedure: as §1
# CDIPT, O14735 = target: CDIPT, O14735
# Procedure: as §1
# CLPP, Q16740 = target: CLPP, Q16740
# Procedure: as §1
# CPNE3, O75131 = target: CPNE3, O75131
# Procedure: as §1
# ESF1, Q9H501 = target: ESF1, Q9H501
# Procedure: as §1
# GDI2, P50395 = target: GDI2, P50395
# Procedure: as §1
# HSPBP1, Q9NZL4 = target: HSPBP1, Q9NZL4
# Procedure: as §1
# KIF2A, O00139 = target: KIF2A, O00139
# Procedure: as §1
# MACF1 = target: MACF1
# Procedure: as §1
# MRPS2, Q9Y399 = target: MRPS2, Q9Y399
# Procedure: as §1
# MRPS5, P82675 = target: MRPS5, P82675
# Procedure: as §1
# MTOR, P42345 = target: MTOR, P42345
# Procedure: as §1
# PLK1, P53350 = target: PLK1, P53350
# Procedure: as §1
# POLDIP3, Q9BY77 = target: POLDIP3, Q9BY77
# Procedure: as §1
# PWWP2A, Q96N64 = target: PWWP2A, Q96N64
# Procedure: as §1
# RAB7A, P51149 = target: RAB7A, P51149
# Procedure: as §1
# SUPT6H, Q7KZ85 = target: SUPT6H, Q7KZ85
# Procedure: as §1
# UFL1, O94874 = target: UFL1, O94874
# Procedure: as §1
binder,measurement,setting,value
GPFSGNIFLVTMKGQ [BANCR],PRISMA enrichment of interactor (log2),"ACSL3, O95573",3.76
same,PRISMA enrichment of interactor (log2),"ATP6V1F, Q16864",3.83
same,PRISMA enrichment of interactor (log2),"EIF2B2, P49770",4.45
same,PRISMA enrichment of interactor (log2),"KNOP1, Q1ED39",3.73
same,PRISMA enrichment of interactor (log2),"STAG2, Q8N3U4",4.96
same,PRISMA enrichment of interactor (log2),"UMPS, P11172",5.27
same,PRISMA enrichment of interactor (log2),"USP15, Q9Y4E8",4.1
EVPVPPPVPPRRRP [SOS1_WT_1],PRISMA enrichment of interactor (log2),"ACP1, P24666",4.76
same,PRISMA enrichment of interactor (log2),"CD2AP, Q9Y5K6",5.75
same,PRISMA enrichment of interactor (log2),"CHERP, Q8IWX8",5.1
same,PRISMA enrichment of interactor (log2),"CPSF2, Q9P2I0",7.9
same,PRISMA enrichment of interactor (log2),"FKBP4, Q02790",6.24
same,PRISMA enrichment of interactor (log2),"GRB2, P62993",7.18
same,PRISMA enrichment of interactor (log2),"HIST1H1E, P10412",6.57
same,PRISMA enrichment of interactor (log2),"MRPL2, Q5T653",3.57
same,PRISMA enrichment of interactor (log2),"PACSIN2, Q9UNF0",6.41
same,PRISMA enrichment of interactor (log2),"PARK7, Q99497",5.33
same,PRISMA enrichment of interactor (log2),"PRIM1, P49642",4.17
same,PRISMA enrichment of interactor (log2),"RBM12B, Q8IXT5",6.54
same,PRISMA enrichment of interactor (log2),"RUSC1, Q9BVN2",5.71
same,PRISMA enrichment of interactor (log2),"SFSWAP, Q12872",4.37
same,PRISMA enrichment of interactor (log2),"SH3GL1, Q99961",5.52
same,PRISMA enrichment of interactor (log2),"STIP1, P31948",6.41
AATAHSYPRRFSTLL [IFRD1],PRISMA enrichment of interactor (log2),"ACP1, P24666",5.04
same,PRISMA enrichment of interactor (log2),"CBX2, Q14781",6.22
same,PRISMA enrichment of interactor (log2),"CDIPT, O14735",8.16
same,PRISMA enrichment of interactor (log2),"CLPP, Q16740",7.87
same,PRISMA enrichment of interactor (log2),"CPNE3, O75131",5.12
same,PRISMA enrichment of interactor (log2),"ESF1, Q9H501",4.54
same,PRISMA enrichment of interactor (log2),"GDI2, P50395",5.35
same,PRISMA enrichment of interactor (log2),"HSPBP1, Q9NZL4",4.57
same,PRISMA enrichment of interactor (log2),"KIF2A, O00139",5.7
same,PRISMA enrichment of interactor (log2),MACF1,5.73
same,PRISMA enrichment of interactor (log2),"MRPS2, Q9Y399",5.38
same,PRISMA enrichment of interactor (log2),"MRPS5, P82675",6.02
same,PRISMA enrichment of interactor (log2),"MTOR, P42345",9.71
same,PRISMA enrichment of interactor (log2),"PLK1, P53350",6.15
same,PRISMA enrichment of interactor (log2),"POLDIP3, Q9BY77",6.31
same,PRISMA enrichment of interactor (log2),"PWWP2A, Q96N64",4.6
same,PRISMA enrichment of interactor (log2),"RAB7A, P51149",5.66
same,PRISMA enrichment of interactor (log2),"SUPT6H, Q7KZ85",5.15
same,PRISMA enrichment of interactor (log2),"UFL1, O94874",4.8

# Part of the list above in a different format.
binder | measurement | setting | value
EVPVPPPVPPRRRP [SOS1_WT_1] | PRISMA enrichment of interactor (log2) | CD2AP, Q9Y5K6 | 5.75
same | PRISMA enrichment of interactor (log2) | CHERP, Q8IWX8 | 5.1
same | PRISMA enrichment of interactor (log2) | CPSF2, Q9P2I0 | 7.9
same | PRISMA enrichment of interactor (log2) | MRPL2, Q5T653 | 3.57
same | PRISMA enrichment of interactor (log2) | RBM12B, Q8IXT5 | 6.54
AATAHSYPRRFSTLL [IFRD1] | PRISMA enrichment of interactor (log2) | GDI2, P50395 | 5.35
same | PRISMA enrichment of interactor (log2) | MRPS2, Q9Y399 | 5.38
same | PRISMA enrichment of interactor (log2) | POLDIP3, Q9BY77 | 6.31
same | PRISMA enrichment of interactor (log2) | PWWP2A, Q96N64 | 4.6
same | PRISMA enrichment of interactor (log2) | RAB7A, P51149 | 5.66
